From doi:10.1101/2025.07.22.666084
These are yes or no findings as the source states them, for the method shown. Binding seen in cells or lysates may run through a third protein. Some entries that bind do so weakly or less than the wild type.

Protein sequences, listed by entry. Tags and fused reporters are not part of them.
UniProt P19338: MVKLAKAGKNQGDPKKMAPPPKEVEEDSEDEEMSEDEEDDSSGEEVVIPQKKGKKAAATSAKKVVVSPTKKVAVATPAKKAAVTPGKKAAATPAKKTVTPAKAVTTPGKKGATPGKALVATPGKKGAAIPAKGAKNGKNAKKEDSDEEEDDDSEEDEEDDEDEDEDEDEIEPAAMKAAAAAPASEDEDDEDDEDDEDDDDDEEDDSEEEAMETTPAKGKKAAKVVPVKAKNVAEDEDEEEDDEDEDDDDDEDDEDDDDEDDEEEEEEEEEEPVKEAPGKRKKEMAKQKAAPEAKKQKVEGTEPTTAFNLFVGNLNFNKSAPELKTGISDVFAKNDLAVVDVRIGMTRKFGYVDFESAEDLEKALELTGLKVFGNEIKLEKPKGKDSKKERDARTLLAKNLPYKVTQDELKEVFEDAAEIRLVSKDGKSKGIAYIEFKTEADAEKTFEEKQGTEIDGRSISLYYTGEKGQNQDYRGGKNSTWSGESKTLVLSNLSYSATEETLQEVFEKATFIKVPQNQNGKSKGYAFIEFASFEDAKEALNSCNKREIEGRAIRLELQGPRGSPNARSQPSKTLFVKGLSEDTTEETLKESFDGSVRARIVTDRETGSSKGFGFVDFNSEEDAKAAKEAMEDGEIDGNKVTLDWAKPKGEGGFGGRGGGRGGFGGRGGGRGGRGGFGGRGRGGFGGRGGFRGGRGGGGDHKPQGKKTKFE
UniProt Q00987: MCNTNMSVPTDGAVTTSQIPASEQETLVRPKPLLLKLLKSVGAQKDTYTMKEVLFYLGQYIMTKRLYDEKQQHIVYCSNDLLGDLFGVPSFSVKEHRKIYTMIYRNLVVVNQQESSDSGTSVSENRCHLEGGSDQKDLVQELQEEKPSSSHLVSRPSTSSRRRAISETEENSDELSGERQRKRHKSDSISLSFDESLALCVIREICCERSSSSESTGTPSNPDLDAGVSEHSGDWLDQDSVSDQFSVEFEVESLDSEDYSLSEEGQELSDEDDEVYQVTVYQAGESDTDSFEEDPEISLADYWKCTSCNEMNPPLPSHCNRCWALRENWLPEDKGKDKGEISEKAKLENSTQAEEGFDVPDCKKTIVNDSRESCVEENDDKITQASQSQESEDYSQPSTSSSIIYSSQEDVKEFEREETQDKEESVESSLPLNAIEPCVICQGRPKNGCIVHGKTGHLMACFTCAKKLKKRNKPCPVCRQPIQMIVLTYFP

Target: nucleolin (NCL) (human (endogenous in U87MG)) (UniProt P19338)
Assay: co-IP

With “Murine double minute 2 (MDM2) (from UniProt Q00987 1-491) (enzyme)” the binding was “binds”.
